Where a name gives a salt, the structure may show the parent alone. Read-outs that look alike come from different tables or passages of the source. Out of some 3,300 compounds screened, about 95 (3%) showed an effect of 50% or more. The list shows a part of the results. Peptide text beside a SMILES is read from it.
Tested on: HCoV-229E
Design: species or system Huh-7; HTS, protection from HCoV-229E induced cell death, luminescent cell viability (CellCounting-Lite 2.0), inhibition rate
Conditions: 24 h post infection, 1 h compound pre-incubation, 10 µM, inhibitor

**Q.** Which “229E Inhibition rate” value (229E Inhibition rate, 24 h) does the source give for `COC(=O)[C@@H]1[C@H]2C[C@H]3c4[nH]c5ccccc5c4CCN3C[C@@H]2CC[C@@H]1O` [Yohimbine (Hydrochloride)] here?
**A.** 36%

**Q.** Which “229E Inhibition rate” value does the source give for `COc1cc(O)c(C(=O)/C=C/c2ccc(O)cc2)c(OC)c1` [Flavokawain C] here?
**A.** 0%

**Q.** Which “229E Inhibition rate” value does the source give for `COc1cccc(CCC(=O)O)c1` [3-(3-Methoxyphenyl)propionic acid] here?
**A.** 21.4%

**Q.** With `COC(=O)C1=CO[C@@H](C)[C@H]2CN3CCc4c([nH]c5ccccc45)[C@@H]3C[C@H]12` [Ajmalicine] as the molecule, how does the “229E Inhibition rate” value read?
**A.** 55.3%

**Q.** For `OCc1ccccc1O[C@@H]1O[C@H](CO)[C@@H](O)[C@H](O)[C@H]1O` [Salicin], which “229E Inhibition rate” value is on record?
**A.** 0%

**Q.** How did the “229E Inhibition rate” value turn out when `CN1[C@@H]2CC(O)C[C@H]1[C@@H]1O[C@@H]12` (some centres unmarked) [Scopine] was run?
**A.** 42%

**Q.** `C=C1CC[C@@H]2[C@](C)(CO)[C@H](O)CC[C@@]2(C)[C@@H]1C/C=C1/C(=O)OC[C@H]1O` [Andrographolide] was tested. Which “229E Inhibition rate” value did it give?
**A.** 0%

**Q.** Which “229E Inhibition rate” value (229E Inhibition rate, 24 h) does the source give for `CC(C)[C@H](NC(=O)[C@H](CC(=O)O)NC(=O)[C@H](CCCCN)NC(=O)[C@@H](N)CCCN=C(N)N)C(=O)N[C@@H](Cc1ccc(O)cc1)C(=O)O` [Thymopentin] (H-RKDVY-OH) here?
**A.** 21.6%

**Q.** How did the “229E Inhibition rate” value turn out when `O=C[C@H](O)[C@@H](O)[C@@H](O)[C@H](O)C(=O)O` [D-Galacturonic acid (hydrate)] was run?
**A.** 6.7%

**Q.** How did the “229E Inhibition rate” value turn out when `CC1(C)CC[C@]2(C(=O)O[C@@H]3O[C@H](CO)[C@@H](O)[C@H](O)[C@H]3O)CC[C@]3(C)C(=CC[C@@H]4[C@@]5(C)CC[C@H](O[C@@H]6O[C@H](C(=O)O)[C@@H](O)[C@H](O)[C@H]6O[C@@H]6O[C@H](CO)[C@@H](O)[C@H](O)[C@H]6O)C(C)(C)[C@@H]5CC[C@]43C)[C@@H]2C1` [Ginsenoside Ro] was run?
**A.** 14.3%

**Q.** How did the “229E Inhibition rate” value turn out when `Oc1ccc([C@H]2Oc3cc(O)cc(O)c3C[C@H]2O)cc1` [(-)-Epiafzelechin] was run?
**A.** 11.8%

**Q.** How did the “229E Inhibition rate” value turn out when `COc1cc(-c2oc3cc(O)cc(O)c3c(=O)c2O)ccc1O` [Isorhamnetin] was run?
**A.** 7.4%

**Q.** Which “229E Inhibition rate” value does the source give for `O=c1ccn([C@@H]2O[C@H](CO)[C@@H](O)[C@@H]2O)c(=O)[nH]1` [1-beta-D-Arabinofuranosyluracil] here?
**A.** 21.8%

**Q.** How did the “229E Inhibition rate” value turn out when `O=C(O[C@@H]1Cc2c(O)cc(O)cc2O[C@@H]1c1cc(O)c(=O)c2c(O)c(O)cc([C@H]3Oc4cc(O)cc(O)c4C[C@H]3OC(=O)c3cc(O)c(O)c(O)c3)c2c1)c1cc(O)c(O)c(O)c1` [Theaflavin 3,3'-digallate] was run?
**A.** 9.8%

**Q.** How did the “229E Inhibition rate” value turn out when `COc1cccc2c1C(=O)c1c(O)c3c(c(O)c1C2=O)C[C@@](O)(C(C)=O)C[C@@H]3O[C@H]1C[C@H](N)[C@H](O)[C@H](C)O1` [Daunorubicin (hydrochloride)] was run?
**A.** 2.9%

**Q.** With `Oc1cc(O)c2c(c1)O[C@H](c1ccc(O)c(O)c1)[C@H](O)[C@H]2c1c(O)cc(O)c2c1O[C@H](c1ccc(O)c(O)c1)[C@H](O)C2` [Procyanidin B2] as the molecule, how does the “229E Inhibition rate” value read?
**A.** 13.1%

**Q.** For `CC(C)=CCC/C(C)=C/C=O` [Citral], which “229E Inhibition rate” value is on record?
**A.** 47.4%

**Q.** Which “229E Inhibition rate” value (229E Inhibition rate, 24 h) does the source give for `COC(=O)[C@H]1[C@H]2C[C@@H]3c4[nH]c5cc(OC)ccc5c4CCN3C[C@H]2C[C@@H](OC(=O)c2cc(OC)c(OC)c(OC)c2)[C@@H]1OC` [Reserpine (hydrochloride)] here?
**A.** 6.8%

**Q.** `CC1(C)[C@@H](O)CC[C@]2(C)[C@H]3CC=C4[C@@H]5C[C@@]6(C)C[C@H](OC6=O)[C@]5(C)CC[C@@]4(C)[C@]3(C)CC[C@@H]12` [Wilforlide A] was tested. Which “229E Inhibition rate” value did it give?
**A.** 6.1%

**Q.** For `COc1c2c(cc3oc(CO)cc(=O)c13)O[C@H](C(C)(C)O)C2` [Cimifugin], which “229E Inhibition rate” value is on record?
**A.** 8.3%

**Q.** With `NCC(O)CCC(N)C(=O)O` (racemic) [DL-5-Hydroxylysine (hydrochloride)] as the molecule, how does the “229E Inhibition rate” value read?
**A.** 12.9%

**Q.** `O=C(/C=C/c1ccc(O)cc1)c1ccc(O)cc1O` [Isoliquiritigenin] was tested. Which “229E Inhibition rate” value did it give?
**A.** 0%

**Q.** How did the “229E Inhibition rate” value turn out when `O=C(/C=C/c1ccc(O)c2oc(-c3ccc(O)c(O)c3)cc12)O[C@H](Cc1ccc(O)c(O)c1)C(=O)O` [Salvianolic acid C] was run?
**A.** 23.8%

**Q.** `COc1cc2ccc(=O)oc2cc1O[C@@H]1O[C@H](CO)[C@@H](O)[C@H](O)[C@H]1O` [Scopolin] was tested. Which “229E Inhibition rate” value did it give?
**A.** 11.6%

**Q.** Which “229E Inhibition rate” value does the source give for `OCc1c[nH]c2ccccc12` [Indole-3-carbinol] here?
**A.** 7.2%

**Q.** With `N[C@@H](Cc1c[nH]c2ccccc12)C(=O)O` [L-Tryptophan] as the molecule, how does the “229E Inhibition rate” value read?
**A.** 23%

**Q.** `C[C@@H]1[C@H]2c3cc4c(cc3O[C@@]35OCOC3=CC(=O)[C@H](C[C@H]1C)[C@@H]25)OCO4` [Sauchinone] was tested. Which “229E Inhibition rate” value did it give?
**A.** 0%

**Q.** Which “229E Inhibition rate” value does the source give for `CC(O)Cn1cnc2c1c(=O)n(C)c(=O)n2C` (centres unmarked) [Proxyphylline] here?
**A.** 10.5%

**Q.** For `CCC(C(=O)O)C(=O)O` [Ethylmalonic acid], which “229E Inhibition rate” value is on record?
**A.** 44.3%

**Q.** Which “229E Inhibition rate” value does the source give for `CCCCCCCC/C=C\CCCCCCCC(N)=O` [Oleamide] here?
**A.** 41.1%

**Q.** `CC(=O)c1ccc(O)cc1O` [2',4'-Dihydroxyacetophenone] was tested. Which “229E Inhibition rate” value did it give?
**A.** 48.3%

**Q.** Which “229E Inhibition rate” value does the source give for `CC(C)(C)c1cc(O)cc(C(C)(C)C)c1` [3,5-Di-tert-butylphenol] here?
**A.** 12.6%

**Q.** How did the “229E Inhibition rate” value turn out when `CC(=O)CCCC(C)CCCC(C)CCCC(C)C` (centres unmarked) [Hexahydrofarnesyl acetone] was run?
**A.** 10.1%

**Q.** Which “229E Inhibition rate” value does the source give for `CN(C)CC(=O)O` [N-Methylsarcosine] here?
**A.** 11.2%

**Q.** How did the “229E Inhibition rate” value turn out when `CC(C)(O)[C@@H]1CC[C@](C)([C@H]2[C@@H](O)C[C@@]3(C)[C@@H]4C[C@H](O)[C@H]5C(C)(C)[C@@H](O[C@@H]6OC[C@@H](O)[C@H](O)[C@H]6O[C@@H]6O[C@H](CO)[C@@H](O)[C@H](O)[C@H]6O)CC[C@@]56C[C@@]46CC[C@]23C)O1` [Astragaloside III] was run?
**A.** 10.8%

**Q.** How did the “229E Inhibition rate” value turn out when `O=C(/C=C/c1ccc(O)c(O)c1)O[C@@H]1C[C@](O)(C(=O)O)C[C@@H](OC(=O)/C=C/c2ccc(O)c(O)c2)[C@H]1O` [Isochlorogenic acid A] was run?
**A.** 23.1%

**Q.** For `CCCCCCCC/C=C\CCCCCCCC(=O)OCC(O)CO` (centres unmarked) [Monoolein], which “229E Inhibition rate” value is on record?
**A.** 25.9%

**Q.** `C=C(C)[C@@H]1CC[C@]2(C(=O)O)CC[C@]3(C)[C@H](CC[C@@H]4[C@@]5(C)CC[C@H](OC(=O)CC(C)(C)C(=O)O)C(C)(C)[C@@H]5CC[C@]43C)[C@@H]12` [Bevirimat] was tested. Which “229E Inhibition rate” value did it give?
**A.** 18.7%

**Q.** For `NC(N)=NOCC[C@H](N)C(=O)O` [L-Canavanine sulfate], which “229E Inhibition rate” value is on record?
**A.** 10.7%

**Q.** `Cc1ccc2[nH]c3ccccc3c2c1` [3-Methylcarbazole] was tested. Which “229E Inhibition rate” value did it give?
**A.** 7.9%

**Q.** For `O=c1ccc2nccc3c4ccccc4n1c23` [Canthin-6-one], which “229E Inhibition rate” value is on record?
**A.** 19.5%

**Q.** `CN1C(=O)CC[C@H]1c1cccnc1` [Cotinine] was tested. Which “229E Inhibition rate” value did it give?
**A.** 7%

**Q.** How did the “229E Inhibition rate” value turn out when `O=C(O[C@@H]1[C@@H](O)[C@H](Oc2cc(O)c(C(=O)CCc3ccccc3)c(O)c2)O[C@@H]2COC(=O)c3cc(O)c(O)c(O)c3-c3c(cc(O)c(O)c3O)C(=O)O[C@@H]12)c1cc(O)c(O)c(O)c1` [Thonningianin A] was run?
**A.** 2.9%

**Q.** How did the “229E Inhibition rate” value turn out when `N[C@@H](Cn1oc(=O)[nH]c1=O)C(=O)O` [Quisqualic acid] was run?
**A.** 41.8%

**Q.** Which “229E Inhibition rate” value does the source give for `Cc1cc(=O)c2c(O)c3c(O)cc(O)c4c5c(O)cc(O)c6c(O)c7c(=O)cc(C)cc7c(c65)c(c2c1)c34` [Protohypericin] here?
**A.** 49.2%

**Q.** For `CC(=O)c1ccc[nH]1` [2-Acetylpyrrole], which “229E Inhibition rate” value is on record?
**A.** 51.6%

**Q.** Which “229E Inhibition rate” value does the source give for `CO[C@@H]1[C@H](OC(=O)/C=C/C=C/C=C/C=C/C(=O)O)CC[C@]2(CO2)[C@H]1[C@@]1(C)O[C@@H]1CC=C(C)C` [Fumagillin] here?
**A.** 17.1%

**Q.** With `COc1cc(CCC(=O)O)ccc1O` [Dihydroferulic acid] as the molecule, how does the “229E Inhibition rate” value read?
**A.** 28.8%

**Q.** For `CCCCCCCCCCCCCCCCCC(=O)OC` [Methyl stearate], which “229E Inhibition rate” value is on record?
**A.** 17.9%

**Q.** With `CC1=C\[C@@H](O)CC(=O)Cc2nc(co2)C(=O)N2CCC=C2C(=O)O[C@H](C(C)C)[C@H](C)/C=C/C(=O)NC\C=C\1` [Virginiamycin M1] as the molecule, how does the “229E Inhibition rate” value read?
**A.** 36.6%

**Q.** With `COc1c(/C=C/C(=O)c2ccc(O)c(CC=C(C)C)c2)ccc(O)c1O` [Licochalcone D] as the molecule, how does the “229E Inhibition rate” value read?
**A.** 3.4%

**Q.** How did the “229E Inhibition rate” value turn out when `CC(C)=CC1CC(O)(C2CCC3(C)C2CCC2C4(C=O)CCC(OC5OCC(O)C(OC6OCC(O)C(O)C6O)C5OC5OC(C)C(O)C(O)C5O)C(C)(C)C4CCC23C)C(O)O1` (centres unmarked) [Gypenoside A] was run?
**A.** 11.3%

**Q.** For `O=C1C=CC[C@@H]2[C@H]3CCCN4CCC[C@@H](CN12)[C@@H]34` [Sophocarpine (monohydrate)], which “229E Inhibition rate” value (229E Inhibition rate, 24 h) is on record?
**A.** 23.9%

**Q.** Which “229E Inhibition rate” value does the source give for `CCCCC[C@H](O)/C=C/[C@H]1[C@H](O)CC(=O)[C@@H]1C/C=C\CCCC(=O)O` [Prostaglandin E2] here?
**A.** 27.2%

**Q.** With `COc1cc(C(=O)O)ccc1O` [Vanillic acid] as the molecule, how does the “229E Inhibition rate” value read?
**A.** 50%

**Q.** With `C=C(C)[C@@H]1CC[C@]2(CO)CC[C@]3(C)[C@H](CC[C@@H]4[C@@]5(C)CC[C@H](O)C(C)(C)[C@@H]5CC[C@]43C)[C@@H]12` [Betulin] as the molecule, how does the “229E Inhibition rate” value read?
**A.** 3.8%

**Q.** `O[C@H]1[C@H](O)[C@@H](O)[C@H](O)[C@@H](O)[C@H]1O` [i-Inositol] was tested. Which “229E Inhibition rate” value did it give?
**A.** 17.8%

**Q.** `C[C@@H](CO[C@@H]1O[C@H](CO)[C@@H](O)[C@H](O)[C@H]1O)[C@@H]1CC[C@@]2(CC[C@]3(C)[C@H](CC[C@@H]4[C@@]5(C)CC[C@H](O[C@@H]6O[C@H](CO)[C@@H](O)[C@H](O)[C@H]6O[C@@H]6O[C@H](CO)[C@@H](O)[C@H](O)[C@H]6O)[C@@](C)(CO[C@@H]6O[C@H](CO)[C@@H](O)[C@H](O)[C@H]6O)[C@@H]5CC[C@]43C)[C@H]2O)CO1` [Hosenkoside K] was tested. Which “229E Inhibition rate” value did it give?
**A.** 58.2%

**Q.** How did the “229E Inhibition rate” value turn out when `COc1cc(O)cc(OC)c1` [3,5-Dimethoxyphenol] was run?
**A.** 32.7%

Source: PMC12431657, “Discovery and mechanistic insights of dibenzoylmethane as a broad spectrum inhibitor of coronavirus” (PLOS Pathogens, 2025)
